Test results as given in the supplement of paper PMC10849652.
The other results are listed elsewhere or left out.

Protein sequences, listed by entry. Tags and fused reporters are not part of them. Lines headed by an entry give the natural chain unless they say otherwise; changes in a name come on top.
UniProt P35998: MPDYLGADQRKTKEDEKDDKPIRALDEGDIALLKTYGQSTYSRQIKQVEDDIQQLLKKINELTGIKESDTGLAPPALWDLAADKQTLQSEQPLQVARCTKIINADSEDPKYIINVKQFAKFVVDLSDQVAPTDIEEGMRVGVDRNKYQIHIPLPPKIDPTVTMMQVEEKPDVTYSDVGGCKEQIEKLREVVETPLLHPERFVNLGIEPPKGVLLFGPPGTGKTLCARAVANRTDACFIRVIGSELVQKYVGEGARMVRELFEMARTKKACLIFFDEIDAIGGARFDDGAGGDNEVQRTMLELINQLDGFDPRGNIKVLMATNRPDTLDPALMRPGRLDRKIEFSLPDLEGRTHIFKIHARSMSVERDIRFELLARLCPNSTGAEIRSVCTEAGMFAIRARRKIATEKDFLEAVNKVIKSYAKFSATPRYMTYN
UniProt Q9H7Z7: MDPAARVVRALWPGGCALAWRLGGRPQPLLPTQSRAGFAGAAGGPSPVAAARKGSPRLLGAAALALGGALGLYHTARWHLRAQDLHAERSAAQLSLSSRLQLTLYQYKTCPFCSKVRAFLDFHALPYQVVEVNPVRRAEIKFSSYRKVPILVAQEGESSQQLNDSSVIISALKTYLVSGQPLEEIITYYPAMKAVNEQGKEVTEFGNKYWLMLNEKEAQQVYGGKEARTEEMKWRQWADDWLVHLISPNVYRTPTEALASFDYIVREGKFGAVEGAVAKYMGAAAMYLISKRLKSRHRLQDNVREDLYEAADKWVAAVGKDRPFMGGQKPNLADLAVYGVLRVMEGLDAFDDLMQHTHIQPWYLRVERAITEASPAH
UniProt P09417: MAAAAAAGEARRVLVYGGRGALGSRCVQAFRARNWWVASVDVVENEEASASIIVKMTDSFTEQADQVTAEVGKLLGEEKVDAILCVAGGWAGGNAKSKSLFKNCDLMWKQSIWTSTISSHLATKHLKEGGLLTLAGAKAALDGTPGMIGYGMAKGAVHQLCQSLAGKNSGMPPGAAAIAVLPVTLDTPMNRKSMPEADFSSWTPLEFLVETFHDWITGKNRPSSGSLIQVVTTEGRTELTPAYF
UniProt Q14997: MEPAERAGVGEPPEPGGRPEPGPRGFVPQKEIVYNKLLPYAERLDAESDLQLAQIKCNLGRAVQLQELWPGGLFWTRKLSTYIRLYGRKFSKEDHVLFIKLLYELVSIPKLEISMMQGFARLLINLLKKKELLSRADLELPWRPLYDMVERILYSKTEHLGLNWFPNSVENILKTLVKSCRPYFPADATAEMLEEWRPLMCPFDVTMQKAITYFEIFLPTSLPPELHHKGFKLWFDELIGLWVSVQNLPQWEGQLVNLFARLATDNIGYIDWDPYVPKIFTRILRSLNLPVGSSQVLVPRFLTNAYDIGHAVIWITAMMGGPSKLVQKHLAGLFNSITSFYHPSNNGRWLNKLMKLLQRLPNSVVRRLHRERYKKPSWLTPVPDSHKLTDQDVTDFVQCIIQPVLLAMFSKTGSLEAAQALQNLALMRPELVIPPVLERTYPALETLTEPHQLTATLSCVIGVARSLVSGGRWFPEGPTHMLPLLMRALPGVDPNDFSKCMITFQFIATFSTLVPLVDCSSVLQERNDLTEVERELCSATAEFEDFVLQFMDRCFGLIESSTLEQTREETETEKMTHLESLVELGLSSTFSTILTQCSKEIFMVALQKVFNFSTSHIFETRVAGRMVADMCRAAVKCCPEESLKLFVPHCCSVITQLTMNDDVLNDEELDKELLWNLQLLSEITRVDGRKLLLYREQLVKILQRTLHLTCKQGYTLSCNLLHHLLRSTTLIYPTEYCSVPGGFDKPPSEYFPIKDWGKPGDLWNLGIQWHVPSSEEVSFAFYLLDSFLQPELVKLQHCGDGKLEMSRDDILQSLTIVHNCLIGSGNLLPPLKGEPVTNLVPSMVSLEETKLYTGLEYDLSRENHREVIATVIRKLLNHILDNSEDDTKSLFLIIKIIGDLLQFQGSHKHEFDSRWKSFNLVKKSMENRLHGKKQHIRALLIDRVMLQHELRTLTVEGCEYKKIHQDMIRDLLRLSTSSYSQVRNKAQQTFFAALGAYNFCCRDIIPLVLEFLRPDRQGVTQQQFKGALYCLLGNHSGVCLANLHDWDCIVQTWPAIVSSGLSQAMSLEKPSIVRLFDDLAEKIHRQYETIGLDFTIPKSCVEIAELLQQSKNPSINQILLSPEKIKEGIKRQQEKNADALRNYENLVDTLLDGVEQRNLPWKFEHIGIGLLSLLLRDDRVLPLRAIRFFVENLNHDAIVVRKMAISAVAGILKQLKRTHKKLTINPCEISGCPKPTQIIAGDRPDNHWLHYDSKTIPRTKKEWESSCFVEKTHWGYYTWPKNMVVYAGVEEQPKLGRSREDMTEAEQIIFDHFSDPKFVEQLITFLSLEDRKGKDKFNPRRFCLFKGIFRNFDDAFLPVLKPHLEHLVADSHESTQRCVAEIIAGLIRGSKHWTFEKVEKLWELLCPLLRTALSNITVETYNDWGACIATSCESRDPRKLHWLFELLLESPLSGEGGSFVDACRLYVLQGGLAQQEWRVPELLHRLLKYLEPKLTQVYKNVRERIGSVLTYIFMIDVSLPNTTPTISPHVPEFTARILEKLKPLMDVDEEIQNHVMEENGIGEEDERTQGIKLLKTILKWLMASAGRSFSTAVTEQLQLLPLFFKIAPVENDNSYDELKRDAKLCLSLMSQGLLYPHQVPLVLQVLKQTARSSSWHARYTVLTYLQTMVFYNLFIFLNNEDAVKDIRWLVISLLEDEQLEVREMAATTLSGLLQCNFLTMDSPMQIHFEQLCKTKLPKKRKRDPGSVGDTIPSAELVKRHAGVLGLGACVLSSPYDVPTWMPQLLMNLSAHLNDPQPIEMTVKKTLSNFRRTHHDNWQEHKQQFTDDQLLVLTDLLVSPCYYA
UniProt Q8TBF2: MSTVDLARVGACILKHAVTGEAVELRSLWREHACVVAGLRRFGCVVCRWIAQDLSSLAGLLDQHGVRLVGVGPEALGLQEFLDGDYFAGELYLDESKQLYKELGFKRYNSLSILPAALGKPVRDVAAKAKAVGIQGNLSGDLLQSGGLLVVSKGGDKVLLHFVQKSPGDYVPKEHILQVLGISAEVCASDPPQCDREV
UniProt Q9Y606: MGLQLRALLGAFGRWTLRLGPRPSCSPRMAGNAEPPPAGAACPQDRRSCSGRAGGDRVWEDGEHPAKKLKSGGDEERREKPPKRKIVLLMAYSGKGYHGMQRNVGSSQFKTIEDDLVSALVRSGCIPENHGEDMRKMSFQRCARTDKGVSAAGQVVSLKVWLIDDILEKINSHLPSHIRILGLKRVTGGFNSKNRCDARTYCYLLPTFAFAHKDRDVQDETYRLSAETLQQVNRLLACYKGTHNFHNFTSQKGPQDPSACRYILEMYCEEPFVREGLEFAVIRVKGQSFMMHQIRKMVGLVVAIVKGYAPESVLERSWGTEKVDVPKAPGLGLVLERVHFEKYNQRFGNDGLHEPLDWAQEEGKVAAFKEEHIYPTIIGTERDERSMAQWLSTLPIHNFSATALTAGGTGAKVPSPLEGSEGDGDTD
UniProt Q14671: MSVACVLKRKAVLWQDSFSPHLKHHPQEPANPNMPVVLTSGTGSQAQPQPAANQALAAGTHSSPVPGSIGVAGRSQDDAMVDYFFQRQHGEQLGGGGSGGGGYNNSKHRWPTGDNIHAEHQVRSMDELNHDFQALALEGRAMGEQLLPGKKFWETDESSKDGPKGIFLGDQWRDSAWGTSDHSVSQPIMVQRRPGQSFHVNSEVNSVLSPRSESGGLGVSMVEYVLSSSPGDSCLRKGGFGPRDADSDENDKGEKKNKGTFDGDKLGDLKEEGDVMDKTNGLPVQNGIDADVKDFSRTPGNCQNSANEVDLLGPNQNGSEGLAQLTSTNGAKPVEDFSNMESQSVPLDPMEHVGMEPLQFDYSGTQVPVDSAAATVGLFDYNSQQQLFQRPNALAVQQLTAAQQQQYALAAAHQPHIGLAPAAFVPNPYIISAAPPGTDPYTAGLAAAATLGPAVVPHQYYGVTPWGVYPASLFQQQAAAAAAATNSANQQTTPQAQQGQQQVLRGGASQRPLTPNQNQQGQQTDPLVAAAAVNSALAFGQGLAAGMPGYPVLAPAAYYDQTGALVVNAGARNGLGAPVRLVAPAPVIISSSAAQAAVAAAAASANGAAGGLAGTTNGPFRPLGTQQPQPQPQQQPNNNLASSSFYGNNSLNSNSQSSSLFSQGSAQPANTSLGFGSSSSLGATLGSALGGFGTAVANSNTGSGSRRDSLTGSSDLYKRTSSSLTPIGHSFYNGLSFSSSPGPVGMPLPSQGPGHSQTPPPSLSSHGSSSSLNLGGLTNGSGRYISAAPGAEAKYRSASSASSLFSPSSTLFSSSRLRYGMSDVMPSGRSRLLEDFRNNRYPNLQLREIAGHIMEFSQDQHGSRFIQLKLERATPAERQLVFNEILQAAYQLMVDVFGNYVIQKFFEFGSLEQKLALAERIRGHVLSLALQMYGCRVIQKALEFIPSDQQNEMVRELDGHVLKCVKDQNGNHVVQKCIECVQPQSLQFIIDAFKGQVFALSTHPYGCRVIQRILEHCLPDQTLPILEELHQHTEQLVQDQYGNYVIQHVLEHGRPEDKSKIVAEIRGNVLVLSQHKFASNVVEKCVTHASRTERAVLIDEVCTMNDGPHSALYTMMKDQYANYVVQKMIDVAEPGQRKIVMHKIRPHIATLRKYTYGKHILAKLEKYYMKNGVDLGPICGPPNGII
UniProt P62191: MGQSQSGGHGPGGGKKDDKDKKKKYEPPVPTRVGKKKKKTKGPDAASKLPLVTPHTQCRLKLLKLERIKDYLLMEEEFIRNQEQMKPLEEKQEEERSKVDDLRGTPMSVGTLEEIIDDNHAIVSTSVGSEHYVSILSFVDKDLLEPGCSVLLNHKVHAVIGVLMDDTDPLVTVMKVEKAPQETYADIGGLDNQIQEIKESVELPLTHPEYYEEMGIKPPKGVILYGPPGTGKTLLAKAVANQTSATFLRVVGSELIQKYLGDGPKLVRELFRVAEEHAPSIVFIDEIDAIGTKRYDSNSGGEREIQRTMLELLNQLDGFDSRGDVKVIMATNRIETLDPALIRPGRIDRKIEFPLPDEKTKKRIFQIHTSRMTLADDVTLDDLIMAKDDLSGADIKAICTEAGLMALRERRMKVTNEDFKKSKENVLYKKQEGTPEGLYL
UniProt Q15185: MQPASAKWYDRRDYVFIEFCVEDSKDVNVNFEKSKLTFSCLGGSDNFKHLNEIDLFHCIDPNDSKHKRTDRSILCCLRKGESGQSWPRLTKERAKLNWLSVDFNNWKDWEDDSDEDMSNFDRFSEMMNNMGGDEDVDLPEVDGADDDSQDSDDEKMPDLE
UniProt P49720: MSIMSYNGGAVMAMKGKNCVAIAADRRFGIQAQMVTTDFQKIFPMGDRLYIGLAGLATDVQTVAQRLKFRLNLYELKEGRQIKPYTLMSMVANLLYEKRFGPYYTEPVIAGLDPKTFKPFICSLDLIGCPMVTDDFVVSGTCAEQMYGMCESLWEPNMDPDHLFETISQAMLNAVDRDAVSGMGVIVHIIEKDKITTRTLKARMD
UniProt Q13200: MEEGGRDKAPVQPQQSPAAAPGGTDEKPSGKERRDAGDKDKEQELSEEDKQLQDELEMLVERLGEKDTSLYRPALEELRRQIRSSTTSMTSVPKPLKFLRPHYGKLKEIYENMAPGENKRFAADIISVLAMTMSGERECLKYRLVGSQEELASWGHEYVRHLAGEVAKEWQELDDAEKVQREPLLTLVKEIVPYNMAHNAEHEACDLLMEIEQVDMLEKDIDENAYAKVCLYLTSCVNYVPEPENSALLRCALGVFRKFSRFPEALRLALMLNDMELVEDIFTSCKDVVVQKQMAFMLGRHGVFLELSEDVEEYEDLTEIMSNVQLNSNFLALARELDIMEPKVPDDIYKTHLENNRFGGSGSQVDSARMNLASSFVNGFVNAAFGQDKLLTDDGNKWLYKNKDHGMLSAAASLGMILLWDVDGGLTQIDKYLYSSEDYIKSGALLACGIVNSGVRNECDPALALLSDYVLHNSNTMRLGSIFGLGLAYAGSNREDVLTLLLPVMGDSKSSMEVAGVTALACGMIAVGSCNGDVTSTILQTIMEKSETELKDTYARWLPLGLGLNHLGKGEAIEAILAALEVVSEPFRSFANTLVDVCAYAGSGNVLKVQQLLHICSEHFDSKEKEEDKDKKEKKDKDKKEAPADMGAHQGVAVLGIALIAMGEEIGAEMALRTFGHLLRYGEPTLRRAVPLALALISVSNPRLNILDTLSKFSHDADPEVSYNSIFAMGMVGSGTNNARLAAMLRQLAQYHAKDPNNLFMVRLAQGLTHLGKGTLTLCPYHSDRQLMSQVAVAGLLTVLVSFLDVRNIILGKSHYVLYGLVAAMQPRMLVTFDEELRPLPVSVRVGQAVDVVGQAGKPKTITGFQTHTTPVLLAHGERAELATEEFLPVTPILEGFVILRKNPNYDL
UniProt Q93096: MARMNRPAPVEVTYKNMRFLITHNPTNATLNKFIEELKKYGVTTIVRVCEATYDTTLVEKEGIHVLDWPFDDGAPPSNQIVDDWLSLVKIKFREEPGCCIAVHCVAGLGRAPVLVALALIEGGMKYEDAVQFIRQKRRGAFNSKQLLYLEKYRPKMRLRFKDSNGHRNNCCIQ

Experiments:
Assay in all cases: log2 fold change, soluble protein after heating vs DMSO (PISA); higher = thermal stabilisation; K562 cells, 10 uM, 30 min; active = over 0.2 and 3.5 SD of the protein, either way, in both replicates (recomputed)
[1] = compound: C1=CC=C(C=C1)[C@H](COC2=CC3=C(C=C2)NC(=O)N3)NC(=O)C4=CC=CN(C4=O)CC5=CC(=C(C=C5)F)F
Summary of the method: (§1)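 Soluble protein was defined as the supernatant after 21,000xg for 90 min. It came from K562 cells at 2×10^6 cells/mL given 10 μM compound for 30 min, heated in aliquots for 3 min across 48°C-58°C, pooled, and extracted in PBS with 0.5% NP-40 at 4°C, and was quantified by TMTpro 16plex LC-MS/MS with equalised channel sums. Thermal stability against control samples, from duplicates, is reported as log2 fold change.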

[2] = compound: CC1=C(SC2=C1C(=N[C@H](C3=NN=C(N32)C)CC(=O)N)C4=CC=C(C=C4)Cl)C
Summary of the method: as §1

[3] = compound: CC1=C2C(=CC=C1)N=C(N(C2=O)C3=CC=CC=C3C)CN4C=NC5=C(N=CN=C54)N
Summary of the method: as §1

[4] = compound: Cc1sc2c(c1C)C(c1ccc(Cl)cc1)=N[C@@H](CC(=O)OC(C)(C)C)c1nnc(C)n1-2
Summary of the method: as §1

[5] = compound: c1ccc([C@@H]2C[C@H]2NC2CCNCC2)cc1
Summary of the method: as §1

Measured: log2 fold change

PSMD11 (UniProt O00231)
inactive: [1] 0.043 | [2] -0.049 | [3] -0.053 | [4] -0.017 | [5] 0

PSMC2 (UniProt P35998)
inactive: [1] 0.031 | [2] -0.085 | [3] -0.092 | [4] 0.002 | [5] 0.001

PSMD1 (UniProt Q99460)
inactive: [1] 0.017 | [2] -0.087 | [3] -0.058 | [4] -0.017 | [5] 0

PSMC4 (UniProt P43686)
inactive: [1] 0.022 | [2] -0.117 | [3] -0.022 | [4] 0.006 | [5] 0.001

PTGES2 (UniProt Q9H7Z7)
inactive: [1] 0.028 | [2] -0.026 | [3] 0.03 | [4] 0.001 | [5] 0.092

QDPR (UniProt P09417)
inactive: [1] 0.015 | [2] 0.002 | [3] -0.012 | [4] 0.032 | [5] 0.095

PSME4 (UniProt Q14997)
inactive: [1] -0.041 | [2] 0.017 | [3] 0.017 | [4] -0.025 | [5] -0.048

PRXL2B isoform 3 (UniProt Q8TBF2)
inactive: [1] 0.024 | [2] -0.085 | [3] 0.001 | [4] 0.025 | [5] 0

QSOX1 (UniProt O00391)
inactive: [1] 0.005 | [2] 0.171 | [3] -0.028 | [4] 0.018 | [5] -0.014

PTGFRN (UniProt Q9P2B2)
inactive: [1] -0.014 | [2] 0.036 | [3] 0.043 | [4] 0.04 | [5] -0.006

PSMA3 (UniProt P25788)
inactive: [1] 0.051 | [2] -0.062 | [3] -0.022 | [4] -0.036 | [5] -0.029

PUS1 (UniProt Q9Y606)
inactive: [1] 0.121 | [2] -0.036 | [3] 0.013 | [4] 0.092 | [5] -0.093

PUM1 isoform 3 (UniProt Q14671)
inactive: [1] 0.004 | [2] -0.036 | [3] 0.056 | [4] 0.025 | [5] -0.049

PSMC1 (UniProt P62191)
inactive: [1] 0.047 | [2] -0.09 | [3] -0.002 | [4] 0 | [5] 0

PSMA6 (UniProt P60900)
inactive: [1] 0.045 | [2] -0.069 | [3] -0.028 | [4] -0.011 | [5] 0.029

PSPH (UniProt P78330)
inactive: [1] 0.018 | [2] 0.094 | [3] 0.079 | [4] -0.011 | [5] -0.045

PTGES3 (UniProt Q15185)
inactive: [1] -0.009 | [2] 0.016 | [3] 0.067 | [4] -0.046 | [5] -0.063

PSMB3 (UniProt P49720)
inactive: [1] -0.006 | [2] -0.064 | [3] -0.044 | [4] -0.029 | [5] 0.029

PSMB1 (UniProt P20618)
inactive: [1] 0.054 | [2] -0.018 | [3] -0.024 | [4] 0.024 | [5] 0.002

PTPN2 (UniProt P17706)
inactive: [1] -0.094 | [2] 0.037 | [3] 0.116 | [4] 0.002 | [5] 0.034

PZP (UniProt P20742)
inactive: [1] -0.008 | [2] -0.046 | [3] 0.103 | [4] 0.078 | [5] 0.149

PSMD2 (UniProt Q13200)
inactive: [1] 0.026 | [2] -0.097 | [3] -0.059 | [4] 0.008 | [5] 0.016

PTK7 isoform 6 (UniProt Q13308)
inactive: [1] -0.032 | [2] 0.092 | [3] -0.005 | [4] 0.061 | [5] 0.051

PTP4A1 (UniProt Q93096)
inactive: [1] -0.002 | [2] 0.109 | [3] 0.037 | [4] 0.001 | [5] -0.031

2 entries picked at random from those above:
PZP (UniProt P20742)
inactive: [1] -0.008 | [2] -0.046 | [3] 0.103 | [4] 0.078 | [5] 0.149

PSMD2 (UniProt Q13200)
inactive: [1] 0.026 | [2] -0.097 | [3] -0.059 | [4] 0.008 | [5] 0.016
